For one molecule, binding results are on record in PMC6753149.

The chains behind the UniProt entries cited, without tags or fusion partners.
UniProt P16370: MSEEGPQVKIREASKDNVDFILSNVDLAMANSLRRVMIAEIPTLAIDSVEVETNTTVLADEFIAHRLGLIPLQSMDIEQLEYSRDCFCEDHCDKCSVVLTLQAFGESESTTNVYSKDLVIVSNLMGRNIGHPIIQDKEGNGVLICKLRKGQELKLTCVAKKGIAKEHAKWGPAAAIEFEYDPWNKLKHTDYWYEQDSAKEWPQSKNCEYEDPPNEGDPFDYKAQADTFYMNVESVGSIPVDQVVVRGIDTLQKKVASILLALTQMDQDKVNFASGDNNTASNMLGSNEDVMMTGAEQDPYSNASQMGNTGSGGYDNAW

Results are given in words; binding and its absence hold for the method and conditions named. Binding seen in cells or lysates may run through a third protein. Some results given as binding are weak or reduced against the parent protein; the word gives no strength. Sequences can lack the tags named with a protein.

The experiment concerns the target Rpb3, a subunit of RNA Pol II (S. cerevisiae (endogenous in yeast cells)) (UniProt P16370). Kind of experiment: co-IP; 1.5 mg whole cell extract with anti-Rpb3 antibody (BioLegend) and protein G sepharose, 4 °C, 4 h; 50 mM Tris-HCl pH 7.5, 0.1% NP-40, 150 mM NaCl; precipitates immunoblotted for the tagged proteins and Rpb3.

B1: Hda1 (TAP-tagged) (protein, UniProt P53973 1-706)
chain: MDSVMVKKEVLENPDHDLKRKLEENKEEENSLSTTSKSKRQVIVPVCMPKIHYSPLKTGLCYDVRMRYHAKIFTSYFEYIDPHPEDPRRIYRIYKILAENGLINDPTLSGVDDLGDLMLKIPVRAATSEEILEVHTKEHLEFIESTEKMSREELLKETEKGDSVYFNNDSYASARLPCGGAIEACKAVVEGRVKNSLAVVRPPGHHAEPQAAGGFCLFSNVAVAAKNILKNYPESVRRIMILDWDIHHGNGTQKSFYQDDQVLYVSLHRFEMGKYYPGTIQGQYDQTGEGKGEGFNCNITWPVGGVGDAEYMWAFEQVVMPMGREFKPDLVIISSGFDAADGDTIGQCHVTPSCYGHMTHMLKSLARGNLCVVLEGGYNLDAIARSALSVAKVLIGEPPDELPDPLSDPKPEVIEMIDKVIRLQSKYWNCFRRRHANSGCNFNEPINDSIISKNFPLQKAIRQQQQHYLSDEFNFVTLPLVSMDLPDNTVLCTPNISESNTIIIVVHDTSDIWAKRNVISGTIDLSSSVIIDNSLDFIKWGLDRKYGIIDVNIPLTLFEPDNYSGMITSQEVLIYLWDNYIKYFPSVAKIAFIGIGDSYSGIVHLLGHRDTRAVTKTVINFLGDKQLKPLVPLVDETLSEWYFKNSLIFSNNSHQCWKENESRKPRKKFGRVLRCDTDGLNNIIEERFEEATDFILDSFEEWSDEE
Take B1: the binding entry was “binds”.
